Results reported in the supplement of paper PMC12067093, “Discovery and optimisation of a covalent ligand for TRIM25 and its application to targeted protein ubiquitination” (Chemical Science, 2025).
The list shows a part of the results.

Sequences of proteins named here, by UniProt entry; tags and fusion partners are left off. A change or cut given only in a name is not applied to a line headed by its entry.
UniProt Q9GZU8: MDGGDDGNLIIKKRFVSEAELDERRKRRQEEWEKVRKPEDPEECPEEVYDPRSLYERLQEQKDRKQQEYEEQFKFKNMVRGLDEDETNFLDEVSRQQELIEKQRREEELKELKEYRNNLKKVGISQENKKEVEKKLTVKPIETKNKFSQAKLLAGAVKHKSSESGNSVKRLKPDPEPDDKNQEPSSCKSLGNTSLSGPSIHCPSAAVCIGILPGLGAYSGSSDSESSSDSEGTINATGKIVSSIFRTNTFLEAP
UniProt Q9NVI1: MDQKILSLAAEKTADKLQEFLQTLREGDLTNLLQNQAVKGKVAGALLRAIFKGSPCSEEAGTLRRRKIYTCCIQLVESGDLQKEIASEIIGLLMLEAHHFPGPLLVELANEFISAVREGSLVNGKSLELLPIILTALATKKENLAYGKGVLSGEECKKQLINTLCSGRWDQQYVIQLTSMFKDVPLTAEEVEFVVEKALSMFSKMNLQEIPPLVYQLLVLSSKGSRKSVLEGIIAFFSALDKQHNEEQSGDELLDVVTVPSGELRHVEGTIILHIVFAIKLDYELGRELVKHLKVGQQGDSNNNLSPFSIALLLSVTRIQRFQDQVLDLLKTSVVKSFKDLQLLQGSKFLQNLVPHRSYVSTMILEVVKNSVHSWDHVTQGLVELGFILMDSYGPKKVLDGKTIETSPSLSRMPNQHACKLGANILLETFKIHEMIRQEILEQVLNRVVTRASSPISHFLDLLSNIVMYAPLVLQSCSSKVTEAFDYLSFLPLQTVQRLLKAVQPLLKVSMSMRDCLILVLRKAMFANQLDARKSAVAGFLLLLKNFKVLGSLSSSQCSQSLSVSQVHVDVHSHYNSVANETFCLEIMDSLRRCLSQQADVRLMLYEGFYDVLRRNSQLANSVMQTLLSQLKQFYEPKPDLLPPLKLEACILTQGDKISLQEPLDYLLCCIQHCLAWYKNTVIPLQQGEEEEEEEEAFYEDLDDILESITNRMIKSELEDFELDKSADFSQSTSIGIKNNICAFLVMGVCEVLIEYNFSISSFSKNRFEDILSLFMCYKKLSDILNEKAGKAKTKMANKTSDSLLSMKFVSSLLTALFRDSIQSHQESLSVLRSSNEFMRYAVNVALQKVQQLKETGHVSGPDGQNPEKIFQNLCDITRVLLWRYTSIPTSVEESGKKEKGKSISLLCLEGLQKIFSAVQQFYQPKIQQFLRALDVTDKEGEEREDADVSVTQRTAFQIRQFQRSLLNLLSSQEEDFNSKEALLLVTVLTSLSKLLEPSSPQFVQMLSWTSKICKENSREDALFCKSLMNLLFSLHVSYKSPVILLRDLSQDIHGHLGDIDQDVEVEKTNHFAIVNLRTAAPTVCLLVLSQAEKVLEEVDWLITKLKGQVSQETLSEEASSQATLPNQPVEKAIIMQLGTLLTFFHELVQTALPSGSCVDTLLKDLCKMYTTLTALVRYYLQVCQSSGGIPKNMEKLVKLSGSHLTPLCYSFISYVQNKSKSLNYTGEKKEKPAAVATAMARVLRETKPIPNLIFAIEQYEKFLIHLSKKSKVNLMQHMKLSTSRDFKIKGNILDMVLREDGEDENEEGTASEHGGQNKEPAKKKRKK
UniProt P14324: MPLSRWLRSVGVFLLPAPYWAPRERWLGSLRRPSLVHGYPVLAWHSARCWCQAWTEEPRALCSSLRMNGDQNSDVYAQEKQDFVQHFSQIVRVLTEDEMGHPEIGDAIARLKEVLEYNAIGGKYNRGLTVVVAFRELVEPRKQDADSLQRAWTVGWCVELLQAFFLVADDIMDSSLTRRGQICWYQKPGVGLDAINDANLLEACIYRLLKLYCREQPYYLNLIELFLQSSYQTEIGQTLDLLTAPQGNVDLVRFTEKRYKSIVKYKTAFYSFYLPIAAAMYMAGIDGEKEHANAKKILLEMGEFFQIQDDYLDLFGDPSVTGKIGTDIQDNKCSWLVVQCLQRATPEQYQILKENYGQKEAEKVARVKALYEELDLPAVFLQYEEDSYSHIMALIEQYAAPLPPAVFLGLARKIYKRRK
UniProt P0C2W1: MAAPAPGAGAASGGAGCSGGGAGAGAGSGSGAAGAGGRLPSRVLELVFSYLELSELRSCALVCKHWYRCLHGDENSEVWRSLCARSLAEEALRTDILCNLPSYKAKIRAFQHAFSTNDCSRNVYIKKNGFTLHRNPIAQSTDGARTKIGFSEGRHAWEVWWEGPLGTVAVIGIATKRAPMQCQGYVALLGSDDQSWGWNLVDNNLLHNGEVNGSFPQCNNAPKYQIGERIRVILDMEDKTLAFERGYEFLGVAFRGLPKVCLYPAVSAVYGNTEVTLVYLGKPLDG
UniProt P49327, whole entry, looked up: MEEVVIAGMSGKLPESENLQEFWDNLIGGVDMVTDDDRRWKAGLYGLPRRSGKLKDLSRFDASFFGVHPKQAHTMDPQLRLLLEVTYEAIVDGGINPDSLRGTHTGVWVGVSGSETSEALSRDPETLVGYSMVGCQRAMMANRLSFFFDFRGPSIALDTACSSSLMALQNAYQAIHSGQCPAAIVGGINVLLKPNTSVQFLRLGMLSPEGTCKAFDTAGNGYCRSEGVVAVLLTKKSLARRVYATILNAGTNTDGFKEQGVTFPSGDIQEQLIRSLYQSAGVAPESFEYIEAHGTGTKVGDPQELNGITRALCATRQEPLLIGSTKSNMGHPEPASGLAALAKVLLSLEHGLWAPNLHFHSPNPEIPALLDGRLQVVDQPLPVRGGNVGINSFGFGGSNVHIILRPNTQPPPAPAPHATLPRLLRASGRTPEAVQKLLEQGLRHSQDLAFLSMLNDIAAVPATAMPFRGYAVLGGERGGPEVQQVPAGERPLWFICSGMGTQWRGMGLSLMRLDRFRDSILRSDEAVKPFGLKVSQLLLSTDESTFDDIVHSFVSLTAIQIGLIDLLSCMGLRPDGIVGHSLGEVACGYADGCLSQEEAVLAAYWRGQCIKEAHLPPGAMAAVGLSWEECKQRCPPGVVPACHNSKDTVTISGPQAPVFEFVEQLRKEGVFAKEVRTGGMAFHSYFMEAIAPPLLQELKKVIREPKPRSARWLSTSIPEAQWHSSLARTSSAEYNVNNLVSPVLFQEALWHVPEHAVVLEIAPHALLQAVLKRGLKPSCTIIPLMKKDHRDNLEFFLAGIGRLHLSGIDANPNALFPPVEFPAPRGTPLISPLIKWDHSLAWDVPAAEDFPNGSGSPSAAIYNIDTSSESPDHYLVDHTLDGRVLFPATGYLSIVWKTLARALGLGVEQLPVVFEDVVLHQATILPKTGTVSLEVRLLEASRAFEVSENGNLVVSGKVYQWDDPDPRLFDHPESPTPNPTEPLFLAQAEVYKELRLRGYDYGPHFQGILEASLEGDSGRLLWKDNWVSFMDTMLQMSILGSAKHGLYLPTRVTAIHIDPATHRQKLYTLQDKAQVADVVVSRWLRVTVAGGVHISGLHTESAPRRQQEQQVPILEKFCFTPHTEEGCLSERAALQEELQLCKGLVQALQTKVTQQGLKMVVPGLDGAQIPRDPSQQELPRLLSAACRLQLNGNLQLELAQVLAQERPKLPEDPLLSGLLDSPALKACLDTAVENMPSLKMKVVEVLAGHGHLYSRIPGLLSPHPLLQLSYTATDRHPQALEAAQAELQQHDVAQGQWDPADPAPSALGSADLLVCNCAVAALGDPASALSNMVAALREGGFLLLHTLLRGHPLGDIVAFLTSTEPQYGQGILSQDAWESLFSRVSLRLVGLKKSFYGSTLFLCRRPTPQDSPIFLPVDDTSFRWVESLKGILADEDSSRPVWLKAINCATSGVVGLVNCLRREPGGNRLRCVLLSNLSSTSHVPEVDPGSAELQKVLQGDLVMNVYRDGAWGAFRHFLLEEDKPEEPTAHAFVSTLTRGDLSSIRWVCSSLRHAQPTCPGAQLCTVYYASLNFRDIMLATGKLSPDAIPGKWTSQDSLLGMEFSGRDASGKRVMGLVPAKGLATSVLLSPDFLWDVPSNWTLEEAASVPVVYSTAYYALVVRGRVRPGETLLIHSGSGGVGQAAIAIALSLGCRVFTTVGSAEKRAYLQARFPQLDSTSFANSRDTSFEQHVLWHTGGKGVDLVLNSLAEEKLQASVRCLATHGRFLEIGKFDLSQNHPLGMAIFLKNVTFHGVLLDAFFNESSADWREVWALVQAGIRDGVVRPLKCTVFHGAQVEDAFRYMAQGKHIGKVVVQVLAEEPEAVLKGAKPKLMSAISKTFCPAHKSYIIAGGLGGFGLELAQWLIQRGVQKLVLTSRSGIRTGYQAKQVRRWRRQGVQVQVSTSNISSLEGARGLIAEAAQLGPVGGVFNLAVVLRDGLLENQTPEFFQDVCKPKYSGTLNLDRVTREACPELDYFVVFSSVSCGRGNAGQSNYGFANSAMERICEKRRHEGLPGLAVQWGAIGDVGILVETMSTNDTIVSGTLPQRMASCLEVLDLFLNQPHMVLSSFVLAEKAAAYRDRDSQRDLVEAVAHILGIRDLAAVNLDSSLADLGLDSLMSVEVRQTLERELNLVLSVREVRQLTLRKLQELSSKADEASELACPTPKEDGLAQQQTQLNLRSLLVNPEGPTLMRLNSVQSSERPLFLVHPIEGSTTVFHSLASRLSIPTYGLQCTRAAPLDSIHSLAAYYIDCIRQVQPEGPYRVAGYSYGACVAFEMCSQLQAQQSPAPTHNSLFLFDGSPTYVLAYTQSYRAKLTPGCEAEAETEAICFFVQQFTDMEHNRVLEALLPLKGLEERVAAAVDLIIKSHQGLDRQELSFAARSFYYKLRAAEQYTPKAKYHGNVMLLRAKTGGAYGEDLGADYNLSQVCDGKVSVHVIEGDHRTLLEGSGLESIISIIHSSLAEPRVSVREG
UniProt P22570: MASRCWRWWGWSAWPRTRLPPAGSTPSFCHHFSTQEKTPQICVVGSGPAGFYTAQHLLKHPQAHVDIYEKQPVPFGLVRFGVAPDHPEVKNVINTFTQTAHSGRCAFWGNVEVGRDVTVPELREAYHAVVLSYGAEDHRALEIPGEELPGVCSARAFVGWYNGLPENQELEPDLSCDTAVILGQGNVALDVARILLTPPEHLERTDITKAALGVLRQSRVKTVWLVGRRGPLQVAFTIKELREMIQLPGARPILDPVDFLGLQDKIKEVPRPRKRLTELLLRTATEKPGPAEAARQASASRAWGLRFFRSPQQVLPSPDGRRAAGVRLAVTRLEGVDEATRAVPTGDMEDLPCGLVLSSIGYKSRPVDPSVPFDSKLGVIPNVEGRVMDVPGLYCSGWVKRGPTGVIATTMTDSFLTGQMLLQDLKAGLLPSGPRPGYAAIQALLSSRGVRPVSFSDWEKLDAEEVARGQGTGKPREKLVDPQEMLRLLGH
UniProt Q9NXK8: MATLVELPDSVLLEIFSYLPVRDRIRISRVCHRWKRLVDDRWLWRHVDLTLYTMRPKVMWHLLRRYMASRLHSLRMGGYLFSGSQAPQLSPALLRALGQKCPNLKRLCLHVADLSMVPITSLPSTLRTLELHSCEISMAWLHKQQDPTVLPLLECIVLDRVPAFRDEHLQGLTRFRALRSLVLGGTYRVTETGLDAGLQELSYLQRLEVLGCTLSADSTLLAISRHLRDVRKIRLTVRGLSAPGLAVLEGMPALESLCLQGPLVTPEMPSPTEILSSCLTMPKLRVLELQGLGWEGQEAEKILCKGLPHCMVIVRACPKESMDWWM
UniProt Q96PV7: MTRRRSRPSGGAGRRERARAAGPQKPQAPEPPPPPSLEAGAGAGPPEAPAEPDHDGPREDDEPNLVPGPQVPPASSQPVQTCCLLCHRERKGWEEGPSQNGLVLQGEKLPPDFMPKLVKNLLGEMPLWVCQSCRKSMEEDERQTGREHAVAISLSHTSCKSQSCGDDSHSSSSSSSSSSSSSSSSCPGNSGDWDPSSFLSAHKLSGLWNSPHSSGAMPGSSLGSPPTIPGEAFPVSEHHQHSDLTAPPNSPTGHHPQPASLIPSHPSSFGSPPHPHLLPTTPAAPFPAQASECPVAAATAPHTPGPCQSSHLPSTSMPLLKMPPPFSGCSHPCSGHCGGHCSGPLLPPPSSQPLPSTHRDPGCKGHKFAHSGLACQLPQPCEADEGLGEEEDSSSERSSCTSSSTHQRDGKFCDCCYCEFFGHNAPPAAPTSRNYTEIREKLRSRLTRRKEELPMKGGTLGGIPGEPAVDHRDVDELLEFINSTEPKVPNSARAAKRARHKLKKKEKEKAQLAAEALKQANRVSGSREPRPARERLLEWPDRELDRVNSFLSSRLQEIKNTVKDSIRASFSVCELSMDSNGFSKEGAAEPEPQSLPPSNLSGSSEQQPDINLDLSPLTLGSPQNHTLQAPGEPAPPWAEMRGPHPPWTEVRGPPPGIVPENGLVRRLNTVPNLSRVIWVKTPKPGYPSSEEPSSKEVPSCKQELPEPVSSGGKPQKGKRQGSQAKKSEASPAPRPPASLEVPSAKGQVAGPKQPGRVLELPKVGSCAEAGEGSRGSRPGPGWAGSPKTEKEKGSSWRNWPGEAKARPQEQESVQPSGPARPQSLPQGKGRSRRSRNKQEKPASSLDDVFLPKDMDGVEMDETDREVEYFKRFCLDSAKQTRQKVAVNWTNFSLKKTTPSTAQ

Compound: Cc1cc(ccc1-c1ccccc1)C(=O)N1CCCN(CC1)C(=O)CCl [compound 10]
Assay: probe-labelled cysteine peptide fold change vs DMSO (competition) (log2 fold change); higher = less target engagement (more negative = stronger competition)
Conditions: 10 µM; THP-1; incubation time: 4 h
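Also: competitive profiling in live THP-1 cells: cysteine peptides tagged with an iodoacetamide desthiobiotin (IA-DTB) probe, intensity after compound treatment relative to DMSO-treated cells.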

**Q.** For “FAM208A_Q9UK61_601_SHIDTCLHAYIFRPEVYQLPICK (UniProt Q9UK61)”, which “probe-labelled cysteine peptide fold change” value is on record?
**A.** -0.151

**Q.** With “FAM192A_Q9GZU8_187_NQEPSSCK (UniProt Q9GZU8)” as the target, how does the “probe-labelled cysteine peptide fold change” value read?
**A.** -0.339

**Q.** Which “probe-labelled cysteine peptide fold change” value does the source give for “FANCI_Q9NVI1_1025_EDALFCK (UniProt Q9NVI1)” here?
**A.** -0.0799

**Q.** How did the “probe-labelled cysteine peptide fold change” value turn out when “FARSB_Q9NSD9_362_ADIIHACDIVEDAAIAYGYNNIQMTLPK (UniProt Q9NSD9)” was run?
**A.** 0.185

**Q.** Which “probe-labelled cysteine peptide fold change” value does the source give for “FANCD2_Q9BXW9_310_LDLQHCVLPSR (UniProt Q9BXW9)” here?
**A.** -0.173

**Q.** How did the “probe-labelled cysteine peptide fold change” value turn out when “FDPS_P14324_204_PGVGLDAINDANLLEACIYR (UniProt P14324)” was run?
**A.** 0.0693

**Q.** How did the “probe-labelled cysteine peptide fold change” value turn out when “FBXO45_P0C2W1_119_AFQHAFSTNDCSR (UniProt P0C2W1)” was run?
**A.** 0.105

**Q.** Which “probe-labelled cysteine peptide fold change” value does the source give for “FCHO1_O14526_371_APACSPEAAAAQLR (UniProt O14526)” here?
**A.** -0.191

**Q.** How did the “probe-labelled cysteine peptide fold change” value turn out when “FAM208B_Q5VWN6_186_VIPILSTLNCALLETKK (UniProt Q5VWN6)” was run?
**A.** -0.206

**Q.** With “FASN_P49327_212_LGMLSPEGTCK (UniProt P49327)” as the target, how does the “probe-labelled cysteine peptide fold change” value read?
**A.** -0.0812

**Q.** With “FASTKD1_Q53R41_673_SVCLECPEFQIPWFHDR (UniProt Q53R41)” as the target, how does the “probe-labelled cysteine peptide fold change” value read?
**A.** -0.00433

**Q.** Which “probe-labelled cysteine peptide fold change” value does the source give for “FDXR_P22570_152_ALEIPGEELPGVCSAR (UniProt P22570)” here?
**A.** -0.085

**Q.** For “FBXW8_Q8N3Y1_214_GAVSELEHVPDTVLCDVHSHDGVVIAGYTSGDVR (UniProt Q8N3Y1)”, which “probe-labelled cysteine peptide fold change” value is on record?
**A.** 0.0234

**Q.** How did the “probe-labelled cysteine peptide fold change” value turn out when “FBXL12_Q9NXK8_310_GLPHCMVIVR (UniProt Q9NXK8)” was run?
**A.** -0.02

**Q.** “FAM193B_Q96PV7_766_VGSCAEAGEGSR (UniProt Q96PV7)” was tested. Which “probe-labelled cysteine peptide fold change” value did it give?
**A.** 0.0282

**Q.** With “FDXR_P22570_105_CAFWGNVEVGR (UniProt P22570)” as the target, how does the “probe-labelled cysteine peptide fold change” value read?
**A.** -0.128
